These are yes or no findings as the source states them, for the method shown. In cells and extracts the contact can be indirect. Some entries that bind do so weakly or less than the wild type.
Columns and labels:
[1] = target: GFP-LRRC8E (human LRRC8E with GFP fused to its N-terminus) (human) [GFP: P42212]; assay: co-immunoprecipitation with antibodies against the tags, LRRC8A-deficient cells
[2] = target: GFP-LRRC8E (human LRRC8E with GFP fused to its N-terminus) (human) [GFP: P42212]; assay: co-immunoprecipitation from double-transfected HEK cells, with endogenous LRRC8A present (WT) or absent (KO)
[3] = target: GFP-LRRC8C (human LRRC8C with GFP fused to its N-terminus) (human) [GFP: P42212]; assay: co-immunoprecipitation with antibodies against the tags, LRRC8A-deficient cells
[4] = target: GFP-LRRC8C (human LRRC8C with GFP fused to its N-terminus) (human) [GFP: P42212]; assay: co-immunoprecipitation from double-transfected HEK cells, with endogenous LRRC8A present (WT) or absent (KO)
[5] = target: LRRC8A (leucine-rich repeat-containing protein 8, family member A), human (human) (UniProt Q8IWT6); assay: co-immunoprecipitation from transfected HEK cells
[6] = target: LRRC8A (leucine-rich repeat-containing protein 8, family member A), human (human) (UniProt Q8IWT6); assay: co-immunoprecipitation from double-transfected HEK cells, Western blot

Chains of the proteins cited; added tags and fusions are not shown.
UniProt Q8IWT6: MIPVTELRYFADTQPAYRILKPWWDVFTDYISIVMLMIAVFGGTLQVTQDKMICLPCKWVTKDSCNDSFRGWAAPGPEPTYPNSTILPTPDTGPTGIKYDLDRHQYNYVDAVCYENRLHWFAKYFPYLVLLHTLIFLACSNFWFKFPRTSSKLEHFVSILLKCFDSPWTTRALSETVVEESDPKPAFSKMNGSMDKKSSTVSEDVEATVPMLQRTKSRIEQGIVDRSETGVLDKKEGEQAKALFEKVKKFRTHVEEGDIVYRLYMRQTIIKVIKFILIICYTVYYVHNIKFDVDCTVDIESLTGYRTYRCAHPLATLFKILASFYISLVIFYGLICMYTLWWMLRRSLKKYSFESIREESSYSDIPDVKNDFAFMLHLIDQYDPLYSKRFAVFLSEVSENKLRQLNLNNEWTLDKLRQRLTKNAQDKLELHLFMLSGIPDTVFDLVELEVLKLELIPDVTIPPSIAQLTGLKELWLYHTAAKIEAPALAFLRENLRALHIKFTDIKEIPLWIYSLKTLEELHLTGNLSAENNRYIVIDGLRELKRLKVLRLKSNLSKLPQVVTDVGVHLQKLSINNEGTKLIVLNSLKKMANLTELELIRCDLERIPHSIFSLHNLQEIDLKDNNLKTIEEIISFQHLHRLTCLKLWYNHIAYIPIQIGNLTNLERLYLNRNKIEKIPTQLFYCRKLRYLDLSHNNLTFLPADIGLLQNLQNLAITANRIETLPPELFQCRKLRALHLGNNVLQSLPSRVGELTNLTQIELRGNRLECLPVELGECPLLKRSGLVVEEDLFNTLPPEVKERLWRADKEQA
UniProt Q8TDW0: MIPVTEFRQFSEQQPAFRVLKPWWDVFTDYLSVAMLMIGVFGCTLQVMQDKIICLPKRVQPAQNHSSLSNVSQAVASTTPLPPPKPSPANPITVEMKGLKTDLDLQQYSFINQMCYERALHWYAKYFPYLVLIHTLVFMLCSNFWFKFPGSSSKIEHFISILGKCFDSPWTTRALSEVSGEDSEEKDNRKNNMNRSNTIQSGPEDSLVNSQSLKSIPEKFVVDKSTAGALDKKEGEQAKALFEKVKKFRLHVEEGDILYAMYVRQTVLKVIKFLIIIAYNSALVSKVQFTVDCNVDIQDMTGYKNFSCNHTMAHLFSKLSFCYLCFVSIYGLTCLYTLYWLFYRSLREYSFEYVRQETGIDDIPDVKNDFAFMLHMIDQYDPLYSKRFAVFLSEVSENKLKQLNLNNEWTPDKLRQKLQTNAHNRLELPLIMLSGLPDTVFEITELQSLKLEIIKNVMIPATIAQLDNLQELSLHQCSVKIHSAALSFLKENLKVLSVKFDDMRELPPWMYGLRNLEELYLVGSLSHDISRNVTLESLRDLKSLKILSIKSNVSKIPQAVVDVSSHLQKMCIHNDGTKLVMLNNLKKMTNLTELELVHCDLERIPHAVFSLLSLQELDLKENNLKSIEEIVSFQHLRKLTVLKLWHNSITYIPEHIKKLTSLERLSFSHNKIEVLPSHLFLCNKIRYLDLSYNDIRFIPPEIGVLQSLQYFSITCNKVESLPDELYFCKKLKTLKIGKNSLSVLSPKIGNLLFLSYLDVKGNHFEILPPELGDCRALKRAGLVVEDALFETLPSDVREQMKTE
UniProt Q6NSJ5: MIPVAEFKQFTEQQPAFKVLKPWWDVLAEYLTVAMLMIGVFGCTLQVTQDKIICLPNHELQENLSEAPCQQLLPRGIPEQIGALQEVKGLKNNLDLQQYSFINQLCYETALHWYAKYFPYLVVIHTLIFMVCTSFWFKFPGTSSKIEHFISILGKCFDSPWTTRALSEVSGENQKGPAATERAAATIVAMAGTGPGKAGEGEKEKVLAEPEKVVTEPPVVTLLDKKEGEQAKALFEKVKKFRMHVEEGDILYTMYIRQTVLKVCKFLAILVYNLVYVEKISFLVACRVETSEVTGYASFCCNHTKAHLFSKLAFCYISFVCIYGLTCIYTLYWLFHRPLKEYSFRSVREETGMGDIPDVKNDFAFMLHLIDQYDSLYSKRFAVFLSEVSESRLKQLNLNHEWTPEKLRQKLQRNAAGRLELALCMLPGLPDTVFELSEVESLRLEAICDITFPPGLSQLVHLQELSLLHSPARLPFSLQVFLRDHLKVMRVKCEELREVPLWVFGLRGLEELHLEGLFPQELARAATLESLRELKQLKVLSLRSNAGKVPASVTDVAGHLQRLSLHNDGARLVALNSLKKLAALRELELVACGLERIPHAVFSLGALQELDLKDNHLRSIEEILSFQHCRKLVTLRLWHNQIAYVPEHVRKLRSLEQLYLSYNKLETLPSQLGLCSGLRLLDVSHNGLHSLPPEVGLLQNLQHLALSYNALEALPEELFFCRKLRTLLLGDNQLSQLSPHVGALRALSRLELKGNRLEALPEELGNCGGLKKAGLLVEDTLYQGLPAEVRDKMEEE

| binding [5] | binding [6] | Substance | also measured |
| --- | --- | --- | --- |
|  |  | Epitope (myc)-tagged LRRC8C (from UniProt Q8TDW0 1-803) | binding [1]: binds; binding [2]: binds |
|  |  | Epitope (myc)-tagged LRRC8E (from UniProt Q6NSJ5 1-796) | binding [3]: binds; binding [4]: binds |
| binds | binds | GFP-LRRC8B (human LRRC8B with GFP fused to its N-terminus) (from UniProt P42212 1-238; Q6P9F7 1-803) |  |
| binds | binds | GFP-LRRC8D (human LRRC8D with GFP fused to its N-terminus) (from UniProt P42212 1-238; Q7L1W4 1-858) |  |
| binds | binds | GFP-LRRC8E (human LRRC8E with GFP fused to its N-terminus) (from UniProt P42212 1-238; Q6NSJ5 1-796) |  |
